Data: the supplement of paper PMC6078165
Values are relative to the signal before dosing, not to a vehicle control; the signal also falls without drug.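 Fibroblast labels name human fibroblasts: mostly primary ones from tissues such as uterus (C12385, HUF), lung (H6013), bone (Hs27A), adrenal (HADF) and skin (WS1), plus mammary HMF and breast cancer-associated Hs343T. The cancer cells are basal-like or mesenchymal-like triple-negative breast cancer lines. The paper calls a changed response a hit when it shifts by more than 3x the replicate standard deviation. The tissue of the other fibroblasts is not given here.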

System: BT20
Test: relative JC-1 red fluorescence (viability) vs pre-drug, coculture with fibroblast (fraction); higher = more viable cancer cells
Procedure: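 JC-1 labelled TNBC cells cocultured 1:1 (1,500 cells each) with CellTrace Violet stained primary or stromal fibroblasts in 384-well plates in FluoroBrite medium, treated with one of 42 anticancer drugs at 0.1, 1, 10 or 100 uM. JC-1 red fluorescence (mitochondrial integrity in cancer cells only) was read by plate reader every 8 h for 72 h. Values are normalised to each well's pre-drug value. The stock of one drug was tenfold lower, so its dose labels may be too high.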

CC/C(=C(\c1ccccc1)c1ccc(OCCN(C)C)cc1)c1ccccc1 [Tamoxifen]
relative JC-1 red fluorescence
Conditions | 8 h | 16 h | 24 h | 32 h | 40 h | 48 h | 56 h | 64 h | 72 h
0.1 µM, coculture fibroblast: C12385 | 0.9381 | 0.812 | 0.832 | 0.779 | 0.725 | 0.708 | 0.681 | 0.678 | 0.667
0.1 µM, coculture fibroblast: H6013 | 0.963 | 0.849 | 0.8078 | 0.762 | 0.709 | 0.685 | 0.673 | 0.656 | 0.628
0.1 µM, coculture fibroblast: H6019 | 0.917 | 0.859 | 0.842 | 0.807 | 0.766 | 0.744 | 0.707 | 0.662 | 0.632
0.1 µM, coculture fibroblast: H6076 | 0.961 | 0.93333 | 0.858 | 0.823 | 0.78 | 0.748 | 0.728 | 0.721 | 0.702
0.1 µM, coculture fibroblast: H6231 | 0.731 | 0.915 | 0.77 | 0.703 | 0.65 | 0.604 | 0.57 | 0.54 | 0.516
0.1 µM, coculture fibroblast: HADF | 0.867 | 0.883 | 0.808 | 0.76 | 0.698 | 0.651 | 0.623 | 0.598 | 0.567
0.1 µM, coculture fibroblast: HCFa | 0.933 | 0.831 | 0.781 | 0.709 | 0.654 | 0.611 | 0.576 | 0.54 | 0.494
0.1 µM, coculture fibroblast: HCPF | 0.934 | 0.893 | 0.797 | 0.742 | 0.711 | 0.673 | 0.63 | 0.628 | 0.589
0.1 µM, coculture fibroblast: HHSteC | 0.96 | 0.855 | 0.837 | 0.773 | 0.722 | 0.686 | 0.655 | 0.631 | 0.59
0.1 µM, coculture fibroblast: HMF | 0.856 | 0.877 | 0.797 | 0.752 | 0.712 | 0.674 | 0.641 | 0.618 | 0.5974
0.1 µM, coculture fibroblast: HPFa | 0.943 | 0.864 | 0.849 | 0.773 | 0.742 | 0.686 | 0.661 | 0.626 | 0.561
0.1 µM, coculture fibroblast: HUF | 0.9157 | 0.8006 | 0.7581 | 0.679 | 0.628 | 0.5812 | 0.5638 | 0.546 | 0.533
0.1 µM, coculture fibroblast: Hs5 | 0.968 | 0.8897 | 0.8264 | 0.779 | 0.742 | 0.709 | 0.68 | 0.65 | 0.612
0.1 µM, coculture fibroblast: Hs27A | 0.763 | 0.807 | 0.864 | 0.837 | 0.855 | 0.862 | 0.93 | 0.938 | 0.867
0.1 µM, coculture fibroblast: Hs343T | 0.845 | 0.857 | 0.76 | 0.719 | 0.6785 | 0.6349 | 0.5904 | 0.575 | 0.548
0.1 µM, coculture fibroblast: WS1 | 0.87861 | 0.7375 | 0.716 | 0.651 | 0.596 | 0.575 | 0.547 | 0.536 | 0.524
1 µM, coculture fibroblast: C12385 | 0.895 | 0.813 | 0.776 | 0.72 | 0.673 | 0.629 | 0.599 | 0.582 | 0.558
1 µM, coculture fibroblast: H6013 | 0.893 | 0.877 | 0.864 | 0.813 | 0.777 | 0.759 | 0.76 | 0.738 | 0.717
1 µM, coculture fibroblast: H6019 | 0.865 | 0.8284 | 0.853 | 0.808 | 0.774 | 0.763 | 0.731 | 0.706 | 0.687
1 µM, coculture fibroblast: H6076 | 0.952 | 0.9019 | 0.842 | 0.815 | 0.787 | 0.762 | 0.75 | 0.737 | 0.729
1 µM, coculture fibroblast: H6231 | 0.737 | 0.892 | 0.777 | 0.731 | 0.681 | 0.631 | 0.601 | 0.575 | 0.547
1 µM, coculture fibroblast: HADF | 0.912 | 0.923 | 0.924 | 0.871 | 0.848 | 0.822 | 0.811 | 0.802 | 0.774
1 µM, coculture fibroblast: HCFa | 0.93 | 0.875 | 0.866 | 0.813 | 0.77 | 0.738 | 0.71 | 0.685 | 0.645
1 µM, coculture fibroblast: HCPF | 0.911 | 0.826 | 0.793 | 0.756 | 0.728 | 0.6897 | 0.652 | 0.6283 | 0.5961
1 µM, coculture fibroblast: HHSteC | 0.941 | 0.868 | 0.89 | 0.819 | 0.777 | 0.751 | 0.731 | 0.708 | 0.676
1 µM, coculture fibroblast: HMF | 0.981 | 0.822 | 0.748 | 0.689 | 0.649 | 0.616 | 0.579 | 0.55 | 0.5162
1 µM, coculture fibroblast: HPFa | 0.851 | 0.917 | 0.8894 | 0.7932 | 0.759 | 0.7155 | 0.685 | 0.6428 | 0.596
1 µM, coculture fibroblast: HUF | 0.939 | 0.845 | 0.816 | 0.742 | 0.69 | 0.654 | 0.636 | 0.615 | 0.598
1 µM, coculture fibroblast: Hs5 | 0.932 | 0.921 | 0.871 | 0.8185 | 0.792 | 0.7448 | 0.716 | 0.687 | 0.656
1 µM, coculture fibroblast: Hs27A | 0.835 | 0.896 | 0.916 | 0.8937 | 0.8526 | 0.819 | 0.79382 | 0.7665 | 0.71289
1 µM, coculture fibroblast: Hs343T | 0.919 | 0.834 | 0.804 | 0.753 | 0.717 | 0.686 | 0.639 | 0.626 | 0.601
1 µM, coculture fibroblast: WS1 | 0.858 | 0.739 | 0.711 | 0.644 | 0.576 | 0.548 | 0.521 | 0.498 | 0.479
10 µM, coculture fibroblast: C12385 | 0.889 | 0.836 | 0.796 | 0.75 | 0.692 | 0.68 | 0.664 | 0.647 | 0.631
10 µM, coculture fibroblast: H6013 | 0.971 | 0.9424 | 0.901 | 0.901 | 0.84 | 0.832 | 0.817 | 0.79 | 0.77
10 µM, coculture fibroblast: H6019 | 0.89 | 0.877 | 0.85 | 0.813 | 0.772 | 0.7622 | 0.739 | 0.713 | 0.697
10 µM, coculture fibroblast: H6076 | 0.744 | 0.9831 | 0.902 | 0.879 | 0.828 | 0.791 | 0.745 | 0.739 | 0.721
10 µM, coculture fibroblast: H6231 | 0.788 | 0.855 | 0.89 | 0.82 | 0.7494 | 0.698 | 0.657 | 0.621 | 0.59
10 µM, coculture fibroblast: HADF | 0.859 | 0.968 | 0.8513 | 0.866 | 0.825 | 0.793 | 0.767 | 0.752 | 0.724
10 µM, coculture fibroblast: HCFa | 0.869 | 0.796 | 0.806 | 0.801 | 0.826 | 0.7539 | 0.811 | 0.717 | 0.723
10 µM, coculture fibroblast: HCPF | 0.836 | 0.9729 | 0.883 | 0.847 | 0.789 | 0.738 | 0.6856 | 0.67 | 0.611
10 µM, coculture fibroblast: HHSteC | 0.95 | 0.919 | 0.777 | 0.757 | 0.885 | 0.802 | 0.856 | 0.849 | 0.831
10 µM, coculture fibroblast: HMF | 0.834 | 0.813 | 0.941 | 0.839 | 0.949 | 0.884 | 0.82 | 0.771 | 0.727
10 µM, coculture fibroblast: HPFa | 0.9308 | 0.8553 | 0.8237 | 0.769 | 0.711 | 0.6763 | 0.639 | 0.609 | 0.579
10 µM, coculture fibroblast: HUF | 0.87964 | 0.828 | 0.806 | 0.851 | 0.829 | 0.804 | 0.784 | 0.754 | 0.732
10 µM, coculture fibroblast: Hs5 | 0.899 | 0.832 | 0.874 | 0.874 | 0.9812 | 0.9494 | 0.896 | 0.873 | 0.856
10 µM, coculture fibroblast: Hs27A | 0.737 | 0.799 | 0.835 | 0.896 | 0.879 | 0.79 | 0.914 | 0.937 | 0.876
10 µM, coculture fibroblast: Hs343T | 0.78 | 0.884 | 0.885 | 0.85 | 0.801 | 0.7679 | 0.696 | 0.658 | 0.625
10 µM, coculture fibroblast: WS1 | 0.868 | 0.818 | 0.783 | 0.75 | 0.743 | 0.75 | 0.75 | 0.747 | 0.76
